Reference: PubChem BioAssay AID540276 (National Center for Advancing Translational Sciences (NCATS), 2011)
In all, about 300,000 compounds went through this assay and about 5,400 (1.8%) were called active. Calls come from the whole dose curve; tested in HEK293 cells. Inconclusive results, whose numbers are uncertain, are shown. A potency beside an inconclusive call is a rough fit, not a confirmed value.

Assay: qHTS for inhibitors of binding or entry into cells for Marburg Virus
Details: Marburg virus pseudotyped entry inhibition, cell reporter; series mostly up to 37.8 µM
Potency is the fitted concentration of half-maximal effect.

Q: For `CC(C)(C)c1ccc2c(c1)OC(C(=O)N/N=C\c1ccc(-c3cccc(C(=O)O)c3)o1)CO2` (configuration not stated), which Potency is on record?
A: The Potency was inconclusive: 35.5 µM [activator, single point].

Q: With `CC(C)(C)CC(C)(C)c1ccc(OCC(=O)N/N=C/c2ccc(S(=O)(=O)O)o2)cc1` as the compound, how does the Potency read?
A: Its Potency is inconclusive: 3.98 µM [activator, single point].
